Assay results: US20180117176A1, “POROUS SILICON MICROPARTICLE-BASED CANCER VACCINES AND METHODS FOR POTENTIATING ANTI-TUMOR IMMUNITY” (The Methodist Hospital, priority 2015, published 2018)
At least one structure is not confirmed: it was looked up by name or label, or the drawing left a doubt.

System: OVA-specific B3Z CD8 T cells
Assay: In vitro antigen presentation assay, IL-2 production by B3Z cells
Assay type: cell-based, mouse
Details: DCs treated with inhibitor before co-incubation with soluble OVA
Protocol: In Vitro Antigen Presentation Assay. The in vitro antigen presentation assay was performed as previously described (Mukai et al., 2011). Briefly, DC2.4 cells or BMDCs isolated from C57BL/6 mice or TAP^−/− mice were seeded in a 96-well flat-bottom culture plates at a density of 2×10^5 cells/well, and cultured for 12 hrs at 37° C. Each well was washed once with PBS, and then the cells were pulsed with soluble OVA, PSM/OVA, OVA-derived MHC class I epitope peptide [OVA257-264; SIINFEKL (SEQ ID NO:1)], or MHC class II epitope peptide [OVA323-339; ISQAVHAAHAEINEAGR (SEQ ID NO:2); Peptide 2.0] for indicated time points, and immediately fixed with 1% paraformaldehyde. The cells were then co-cultured with 2×10^5 B3Z cells or 2×10^5 DOBW cells for 18 hrs at 37° C. The response of stimulated B3Z or DOBW cells was assessed by determining the amount of IL-2 released into the culture medium using a murine IL-2 ELISA KIT (Ebioscience, San Diego, Calif., USA). […]
T-cell response to antigen cross-presentation of PSM-loaded OVA (PSM/OVA) was next assessed in DCs using an in vitro antigen presentation assay. […] It was subsequently determined whether PSM packaging could induce sustained antigen presentation. […]

CC[C@H](C)[C@H](NC(=O)[C@H]([C@@H](C)CC)N(C)C(C)=O)C(=O)N[C@H](C(=O)N[C@@H](CC(C)C)C(=O)[C@@]1(C)CO1)[C@@H](C)O [epoxomycin]
Effect on class I antigen presentation of soluble OVA: completely blocked
